Assay results from patent publication US20190284292A1.
Results are given in words; binding and its absence hold for the method and conditions named. Some binding calls cover weakened binding; strength is not graded here.

The chains behind the UniProt entries cited, without tags or fusion partners. Residues count along the entry.
UniProt Q07011, residues 24-186: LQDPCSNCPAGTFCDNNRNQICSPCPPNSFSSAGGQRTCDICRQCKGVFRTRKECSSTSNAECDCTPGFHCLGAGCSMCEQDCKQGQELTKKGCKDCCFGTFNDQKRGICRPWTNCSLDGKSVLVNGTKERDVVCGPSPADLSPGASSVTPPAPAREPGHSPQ

Target: 4-1BB recombinant protein (UniProt Q07011)
Test: precipitation of protease digests by the antibody, LC/MS/MS

B1: ZW106 (antibody, V domains shown)
VH: QVQLQQPESELVRPGGSVKLSCKASGYTFTSYWMDWVKQRHGQGLEWIGNIYPDSGGTNYAEKFKSKATLTVDTSSSTAYMHLSSLTSEDSAVYYCTREEALGGYYELTYWGQGTLVTVSA
VL: DIVLTQSPASLPVSLGQRATISCRASQSVSTSSYSYMHWYQQKPGQPPKLLIKYASNLESGVPARFSGSGSGTDFTLNIHPVEEEDTATYYCQHSWEIPYTFGGGTKLEIE
binding: binds
